Results deposited as PubChem BioAssay AID493246 (Drosophila RNAi Screening Center, 2011)
In all, the deposit lists about 21,000 reagents; shown is an unselected part of those that have a named target and a result. Over the whole deposit, 429 (2%) got an active call. 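Values are raw and not normalised between plates; calls rest on per-plate z-scores that were not deposited.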 Names joined by + are all predicted targets of the reagent. Not given: the amount of reagent, the time to read-out.

Purpose: 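Genes fly cells need to grow and stay alive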 (primary screen)
Cells: Drosophila Kc and S2R+ cells
Reagent: long dsRNA against Drosophila genes
Detection: 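Raw, unnormalised count of remaining cells in each well; per-plate z-scores of cell number underlie the calls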
Reading the numbers: Kc cell number and S2R+ cell number: higher = more cells remaining
Rule for the call: 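Counted as a hit if cell number falls by a z-score of at least 3 within its plate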

| Gene | DRSC id | Kc cell number, rep 1 | Kc cell number, rep 2 | S2R+ cell number, rep 1 | S2R+ cell number, rep 2 | call |
| --- | --- | --- | --- | --- | --- | --- |
| CG31882 | DRSC01084 | 1.50e6 | 1.54e6 | 9.87e5 | 1.09e6 | inactive |
| h-cup + Rbp | DRSC14990 | 1.47e6 | 1.50e6 | 1.10e6 | 1.12e6 | inactive |
| tex | DRSC16517 | 1.72e6 | 1.82e6 | 1.39e6 | 1.58e6 | inactive |
| CG18335 | DRSC06723 | 1.54e6 | 1.53e6 | 1.23e6 | 1.36e6 | inactive |
| CG11356 | DRSC19401 | 1.80e6 | 1.66e6 | 1.14e6 | 1.22e6 | inactive |
| CG14089 | DRSC10093 | 1.35e6 | 1.48e6 | 1.24e6 | 1.27e6 | inactive |
| CG5103 | DRSC10481 | 1.33e6 | 1.43e6 | 1.21e6 | 1.35e6 | inactive |
| CG6569 | DRSC16067 | 1.31e6 | 1.30e6 | 1.04e6 | 1.09e6 | inactive |
| Oat (Ornithine aminotransferase precursor) | DRSC11043 | 1.51e6 | 1.60e6 | 1.29e6 | 1.31e6 | inactive |
| CG17050 (retired record) | DRSC06651 | 1.58e6 | 1.48e6 | 1.22e6 | 1.28e6 | inactive |
| CG15554 | DRSC15092 | 1.57e6 | 1.59e6 | 1.07e6 | 1.22e6 | inactive |
| CG18557 | DRSC00524 | 1.58e6 | 1.62e6 | 1.33e6 | 1.25e6 | inactive |
| betaGlu (beta glucuronidase) | DRSC15419 | 5.03e5 | – | 7.25e5 | – | inactive |
| CG6565 | DRSC02970 | 1.41e6 | 1.58e6 | 1.44e6 | 1.54e6 | inactive |
| CG31343 | DRSC15887 | 1.44e6 | 1.47e6 | 1.11e6 | 1.18e6 | inactive |
| Or47a (Odorant receptor 47a) | DRSC07491 | 1.54e6 | 1.58e6 | 1.22e6 | 1.30e6 | inactive |
| DJ-1alpha | DRSC07005 | 1.61e6 | 1.57e6 | 1.25e6 | 1.43e6 | inactive |
| CG42329 | DRSC00373 | 1.50e6 | 1.54e6 | 1.05e6 | 1.19e6 | inactive |
| CG42329 | DRSC00682 | 1.46e6 | 1.45e6 | 1.07e6 | 1.20e6 | inactive |
| CG13532 | DRSC04174 | 1.58e6 | 1.66e6 | 1.30e6 | 1.40e6 | inactive |
| CG17715 | DRSC11950 | 1.54e6 | 1.70e6 | 1.45e6 | 1.51e6 | inactive |
| Uxs (UDP-xylose synthase) | DRSC10941 | 1.27e6 | 1.37e6 | 1.19e6 | 1.18e6 | inactive |
| Duox (Dual oxidase) | DRSC00571 | 1.60e6 | 1.59e6 | 1.04e6 | 1.20e6 | inactive |
| CG8170 | DRSC07087 | 1.51e6 | 1.58e6 | 1.13e6 | 1.27e6 | inactive |
